{"source": "patent US20250032430A1", "about": "“USES OF RHODOQUINONE FOR THE TREATMENT OF DISEASE” (Whitehead Institute for Biomedical Research, priority 2021, published 2025)", "key": {"[1]": {"assay": "Quinone detection in mitochondria of cultured 143B cells", "set-up": "species or system human", "settings": "endogenous"}, "kidney": {"system": "kidney", "assay": "Kidney tissue cultured ex vivo (quinone levels, fumarate reduction)", "set-up": "species or system mouse", "settings": "petri dish", "experimental": "Ex vivo stable isotope tracing on tissues: Tissues were excised from mice and washed in 1×PBS. Tissues were then cut into small pieces and placed in the appropriate stable isotope tracing media. Stable isotope tracing media contained either ^13C5^15N2-glutamine (Sigma) or 13C4-aspartate (Sigma) dissolved in DMEM, 5% FBS, 1% P/S. For ex vivo tracing experiments performed on the brain, the same media was used without FBS. Tissues were incubated for the designated time at 37° C. in a normal or hypoxia tissue culture incubator. Tissues were removed from the media, washed with PBS, and flash frozen in liquid nitrogen. Samples could be stored at −80° C. until metabolites were isolated.\nRhodoquinone-9 is a previously unknown mammalian metabolite. Without wishing to be bound by any particular theory, it is believed that since the level of rhodoquinone-9 decreases overtime when the kidney is cultured ex vivo, that cultured media is missing a component of the rhodoquinone biosynthetic pathway, and that this component may be coming from the gut microbiome."}}, "data": [{"compound": "rhodoquinone-10", "values": [{"measurement": "detection in mitochondria purified from 143B cell line cultured in vitro", "setting": "[1]", "value": "not detected"}]}, {"compound": "rhodoquinone-9", "values": [{"measurement": "levels in kidney tissue cultured ex vivo over time", "setting": "kidney", "value": "decreased overtime"}]}, {"compound": "COC1=C(OC)C(=O)C(C/C=C(\\C)CC/C=C(\\C)CC/C=C(\\C)CC/C=C(\\C)CC/C=C(\\C)CC/C=C(\\C)CC/C=C(\\C)CC/C=C(\\C)CC/C=C(\\C)CCC=C(C)C)=C(C)C1=O", "note": "[ubiquinone-10]", "values": [{"measurement": "detection in mitochondria purified from 143B cell line cultured in vitro", "setting": "[1]", "value": "detected"}]}, {"compound": "COC1=C(OC)C(=O)C(C/C=C(\\C)CC/C=C(\\C)CC/C=C(\\C)CC/C=C(\\C)CC/C=C(\\C)CC/C=C(\\C)CC/C=C(\\C)CC/C=C(\\C)CC/C=C(\\C)CCC=C(C)C)=C(C)C1=O", "note": "[ubiquinone]", "values": [{"measurement": "levels in kidney tissue cultured ex vivo over time", "setting": "kidney", "value": "remained unchanged"}]}]}
